The results in this text go back to patent US20210290612A1.

By UniProt entry, the sequences of proteins in these tests, tags left out. Where a name states a change or a piece, a line headed by the entry shows the natural chain unless it says otherwise.
UniProt Q86VP3: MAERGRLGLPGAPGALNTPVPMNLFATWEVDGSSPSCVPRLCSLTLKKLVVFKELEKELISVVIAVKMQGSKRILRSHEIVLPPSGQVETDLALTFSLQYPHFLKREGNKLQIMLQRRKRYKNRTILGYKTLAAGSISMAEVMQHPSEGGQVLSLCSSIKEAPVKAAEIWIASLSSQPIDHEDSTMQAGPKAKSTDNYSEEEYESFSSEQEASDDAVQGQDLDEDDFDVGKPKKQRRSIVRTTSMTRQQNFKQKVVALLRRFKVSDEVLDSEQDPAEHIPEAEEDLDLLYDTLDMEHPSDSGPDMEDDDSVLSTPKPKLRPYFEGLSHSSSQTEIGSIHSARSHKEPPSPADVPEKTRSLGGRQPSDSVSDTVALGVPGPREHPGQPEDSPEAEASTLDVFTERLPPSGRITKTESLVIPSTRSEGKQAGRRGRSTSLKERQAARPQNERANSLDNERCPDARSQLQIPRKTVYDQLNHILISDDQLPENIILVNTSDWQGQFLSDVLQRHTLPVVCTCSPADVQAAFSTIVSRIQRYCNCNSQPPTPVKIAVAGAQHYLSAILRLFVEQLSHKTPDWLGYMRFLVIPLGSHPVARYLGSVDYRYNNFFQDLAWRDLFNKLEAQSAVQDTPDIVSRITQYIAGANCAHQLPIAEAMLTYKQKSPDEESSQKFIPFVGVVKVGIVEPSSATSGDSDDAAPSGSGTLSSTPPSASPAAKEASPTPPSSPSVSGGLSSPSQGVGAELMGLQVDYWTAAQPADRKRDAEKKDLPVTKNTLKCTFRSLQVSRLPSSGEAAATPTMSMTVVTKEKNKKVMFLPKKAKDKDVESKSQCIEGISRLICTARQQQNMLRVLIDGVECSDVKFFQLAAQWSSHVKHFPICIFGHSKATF

Test [1] has as its target HA-tagged PACS2 (human) (UniProt Q86VP3). In words: co-immunoprecipitation (anti-Flag) from co-transfected HCT116 cells, anti-HA western blot. In general terms: A western blot detects proteins with antibodies after separation by electrophoresis.
In test [2] the target is HA-tagged PACS2^E209K (human) (UniProt Q86VP3). The description is as above.

These are yes or no findings as the source states them, for the method shown. Binding seen in cells or lysates may run through a third protein. Some binding calls cover weakened binding; strength is not graded here. Sequences can lack the tags named with a protein.

B1: Flag-tagged SIRT2 (enzyme, not shown: small tags and cut ends)
chain: MAEPDPSHPLETQAGKVQEAQDSDSDSEGGAAGGEADMDFLRNLFSQTLSLGSQKERLLDELTLEGVARYMQSERCRRVICLVGAGISTSAGIPDFRSPSTGLYDNLEKYHLPYPEAIFEISYFKKHPEPFFALAKELYPGQFKPTICHYFMRLLKDKGLLLRCYTQNIDTLERIAGLEQEDLVEAHGTFYTSHCVSASCRHEYPLSWMKEKIFSEVTPKCEDCQSLVKPDIVFFGESLPARFFSCMQSDFLKVDLLLVMGTSLQVQPFASLISKAPLSTPRLLINKEKAGQSDPFLGMIMGLGGGMDFDSKKAYRDVAWLGECDQGCLALAELLGWKKELEDLVRREHASIDAQSGAGVPNPSTSASPKKSPPPAKDEARTTEREKPQ
For B1, the binding entry in test [1] and in test [2] was “binds” each time.
